No constants are given. Whether binding was seen depends on the method and setting.
Key:
[1] = molecular target: human IGF1R (human) (UniProt P08069); assay: SPR; IGF1R immobilised on a CM4 chip at high density (~2,500 RUs) in 10 mM acetate pH 4.0; analytes flowed at 40 uL/min, contact 300 s, dissociation 400 s; 25 C; HBS-EP or HBS-EP+ running buffer, pH 7.4, 150 mM NaCl; Biacore T200 or 3000; 1:1 binding model; both purified
[2] = molecular target: rhesus IGF1R (rhesus); assay: as above

Sequences of proteins named here, by UniProt entry; tags and fusion partners are left off. A change or cut given only in a name is not applied to a line headed by its entry.
UniProt P08069: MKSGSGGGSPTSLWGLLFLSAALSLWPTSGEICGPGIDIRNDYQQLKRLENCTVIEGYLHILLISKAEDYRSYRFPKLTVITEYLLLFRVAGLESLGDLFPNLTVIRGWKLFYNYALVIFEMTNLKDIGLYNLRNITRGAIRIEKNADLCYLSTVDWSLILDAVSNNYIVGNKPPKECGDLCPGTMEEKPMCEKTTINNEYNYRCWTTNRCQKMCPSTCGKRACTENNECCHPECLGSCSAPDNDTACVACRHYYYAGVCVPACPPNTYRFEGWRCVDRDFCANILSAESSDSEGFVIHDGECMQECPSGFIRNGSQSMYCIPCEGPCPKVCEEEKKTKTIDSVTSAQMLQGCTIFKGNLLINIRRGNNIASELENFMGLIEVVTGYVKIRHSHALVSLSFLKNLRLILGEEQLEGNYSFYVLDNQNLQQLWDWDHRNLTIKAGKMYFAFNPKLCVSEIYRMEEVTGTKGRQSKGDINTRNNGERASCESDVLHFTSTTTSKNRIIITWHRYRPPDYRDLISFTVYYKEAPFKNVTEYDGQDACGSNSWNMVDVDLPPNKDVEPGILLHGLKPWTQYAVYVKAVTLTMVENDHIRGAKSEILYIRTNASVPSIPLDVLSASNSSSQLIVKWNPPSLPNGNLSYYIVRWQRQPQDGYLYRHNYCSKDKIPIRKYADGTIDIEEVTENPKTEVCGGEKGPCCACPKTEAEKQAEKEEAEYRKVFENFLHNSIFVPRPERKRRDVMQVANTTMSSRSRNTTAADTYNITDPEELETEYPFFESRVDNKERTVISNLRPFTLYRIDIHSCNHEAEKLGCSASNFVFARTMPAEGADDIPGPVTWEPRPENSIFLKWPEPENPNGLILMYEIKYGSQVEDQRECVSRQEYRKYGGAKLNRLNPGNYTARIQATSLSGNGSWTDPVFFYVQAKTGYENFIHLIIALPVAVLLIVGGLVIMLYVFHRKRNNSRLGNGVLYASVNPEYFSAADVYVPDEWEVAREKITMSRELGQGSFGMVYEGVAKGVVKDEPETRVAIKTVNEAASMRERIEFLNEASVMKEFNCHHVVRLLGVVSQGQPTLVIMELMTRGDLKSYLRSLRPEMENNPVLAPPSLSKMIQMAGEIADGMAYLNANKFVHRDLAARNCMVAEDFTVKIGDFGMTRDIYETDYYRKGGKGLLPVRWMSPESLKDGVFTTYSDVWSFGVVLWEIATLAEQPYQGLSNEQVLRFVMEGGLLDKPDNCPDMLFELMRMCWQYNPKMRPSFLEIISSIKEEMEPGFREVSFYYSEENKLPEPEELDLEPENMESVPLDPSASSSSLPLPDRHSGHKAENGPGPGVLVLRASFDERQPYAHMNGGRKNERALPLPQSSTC

- binding [1]: no binding
- binding [2]: no binding
B1: iduronate-2-sulfatase (enzyme, UniProt P22304 26-550)
chain: SETQANSTTDALNVLLIIVDDLRPSLGCYGDKLVRSPNIDQLASHSLLFQNAFAQQAVCAPSRVSFLTGRRPDTTRLYDFNSYWRVHAGNFSTIPQYFKENGYVTMSVGKVFHPGISSNHTDDSPYSWSFPPYHPSSEKYENTKTCRGPDGELHANLLCPVDVLDVPEGTLPDKQSTEQAIQLLEKMKTSASPFFLAVGYHKPHIPFRYPKEFQKLYPLENITLAPDPEVPDGLPPVAYNPWMDIRQREDVQALNISVPYGPIPVDFQRKIRQSYFASVSYLDTQVGRLLSALDDLQLANSTIIAFTSDHGWALGEHGEWAKYSNFDVATHVPLIFYVPGRTASLPEAGEKLFPYLDPFDSASQLMEPGRQSMDLVELVSLFPTLAGLAGLQVPPRCPVPSFHVELCREGKNLLKHFRFRDLEEDPYLPGNPRELIAYSQYPRPSDIPQWNSDKPSLKDIKIMGYSIRTIDYRYTVWVGFNPDEFLANFSDIHAGELYFVDSDPLQDHNMYNDSQGGDLFQLLMP
